One assay has as its target T1, Flag-tagged SIRT1 WT (UniProt Q923E4).
T1 sequence: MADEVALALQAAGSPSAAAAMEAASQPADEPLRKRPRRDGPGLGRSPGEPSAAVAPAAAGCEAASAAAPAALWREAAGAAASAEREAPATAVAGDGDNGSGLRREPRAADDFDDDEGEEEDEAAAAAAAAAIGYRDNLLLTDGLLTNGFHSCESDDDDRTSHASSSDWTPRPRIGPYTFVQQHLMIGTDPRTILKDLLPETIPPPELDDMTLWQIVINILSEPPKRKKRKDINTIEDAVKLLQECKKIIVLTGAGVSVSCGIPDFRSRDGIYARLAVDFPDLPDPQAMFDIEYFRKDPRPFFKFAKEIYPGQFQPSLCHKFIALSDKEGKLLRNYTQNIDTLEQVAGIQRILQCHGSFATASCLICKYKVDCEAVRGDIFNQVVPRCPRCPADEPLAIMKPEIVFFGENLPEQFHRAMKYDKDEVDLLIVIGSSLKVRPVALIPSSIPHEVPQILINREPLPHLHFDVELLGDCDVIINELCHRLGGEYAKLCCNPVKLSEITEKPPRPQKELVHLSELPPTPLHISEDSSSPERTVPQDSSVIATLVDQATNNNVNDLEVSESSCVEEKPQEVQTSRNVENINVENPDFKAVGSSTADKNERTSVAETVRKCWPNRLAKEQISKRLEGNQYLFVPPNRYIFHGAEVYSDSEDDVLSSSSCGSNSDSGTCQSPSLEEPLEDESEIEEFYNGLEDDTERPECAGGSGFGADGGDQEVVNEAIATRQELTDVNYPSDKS
As to the kind of experiment: co-IP; Flag co-immunoprecipitation from cell lysate with ANTI-FLAG M2 affinity gel, western blot.

Chains of the proteins cited; added tags and fusions are not shown.
UniProt Q9NRC8: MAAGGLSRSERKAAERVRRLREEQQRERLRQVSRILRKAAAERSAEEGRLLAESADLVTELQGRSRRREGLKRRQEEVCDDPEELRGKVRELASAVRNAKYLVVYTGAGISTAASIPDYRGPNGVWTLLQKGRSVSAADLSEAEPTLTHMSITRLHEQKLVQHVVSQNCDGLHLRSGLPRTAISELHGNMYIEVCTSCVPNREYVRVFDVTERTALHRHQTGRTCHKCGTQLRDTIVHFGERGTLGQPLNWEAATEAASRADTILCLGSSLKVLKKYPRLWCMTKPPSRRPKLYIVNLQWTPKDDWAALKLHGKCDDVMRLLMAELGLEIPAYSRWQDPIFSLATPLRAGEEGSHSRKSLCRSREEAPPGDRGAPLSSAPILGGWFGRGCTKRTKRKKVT

The target in assay [1] is T2, Flag-tagged SIRT1 H355Y mutant (UniProt Q923E4).
T2 sequence: T1 sequence with H355Y
The assay is described as above.

Changes are numbered by the printed parent chain. No constants are given. Whether binding was seen depends on the method and setting. In cells and extracts the contact can be indirect. Some results given as binding are weak or reduced against the parent protein; the word gives no strength. Where a sequence is shown, tags or fusion partners need not be part of it.

On to “endogenous SIRT7 (from UniProt Q9NRC8 1-400)”, for which the binding entry (with Flag-tagged SIRT1 WT; in assay [1]) was “binds” throughout.

These data come from publication PMC4413894.
